According to the supplement of paper PMC8728848:
The other results are listed elsewhere or left out.

Assays:
Assay in all cases: glycan array binding signal (z-score within array); higher = stronger binding
Settings in all cases: glycan notation: IUPAC condensed, linker removed
[1] = biological target: Fuc(a1-2)[Gal(a1-3)]Gal
Procedure, shortened: (§1)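 Glycan array data came from 3228 arrays in the Consortium for Functional Glycomics database, and only arrays with an available protein sequence were kept. Glycan names were put into IUPAC-condensed notation, and columns mapping to the same glycan were averaged. The binding signal is a within-array Z-score, averaged across arrays of one protein sequence run at different concentrations or buffers and across linkers. A negative Z-score can be read as non-binding.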

[2] = biological target: Fuc(a1-2)[Gal(a1-3)]Gal(b1-3)GlcNAc
Procedure, shortened: as §1

[3] = biological target: Fuc(a1-2)[Gal(a1-3)]Gal(b1-3)GlcNAc(b1-2)Man(a1-3)[Fuc(a1-2)[Gal(a1-3)]Gal(b1-3)GlcNAc(b1-2)Man(a1-6)]Man(b1-4)GlcNAc(b1-4)GlcNAc
Procedure, shortened: as §1

[4] = biological target: Fuc(a1-2)[Gal(a1-3)]Gal(b1-4)Glc
Procedure, shortened: as §1

[5] = biological target: Fuc(a1-2)[Gal(a1-3)]Gal(b1-4)GlcNAc
Procedure, shortened: as §1

[6] = biological target: Fuc(a1-2)[Gal(a1-3)]Gal(b1-4)GlcNAc(b1-2)Man(a1-3)[Fuc(a1-2)[Gal(a1-3)]Gal(b1-4)GlcNAc(b1-2)Man(a1-6)]Man(b1-4)GlcNAc(b1-4)GlcNAc
Procedure, shortened: as §1

[7] = biological target: Fuc(a1-2)[Gal(a1-3)]Gal(b1-4)[Fuc(a1-3)]GlcNAc
Procedure, shortened: as §1

[8] = biological target: Fuc(a1-2)[Gal(a1-4)]Gal(b1-4)GlcNAc
Procedure, shortened: as §1

[9] = biological target: Fuc(a1-2)[GalNAc(a1-3)]Gal
Procedure, shortened: as §1

[10] = biological target: Fuc(a1-2)[GalNAc(a1-3)]Gal(b1-3)GalNAc(a1-3)[Fuc(a1-2)]Gal(b1-4)GlcNAc
Procedure, shortened: as §1

[11] = biological target: Fuc(a1-2)[GalNAc(a1-3)]Gal(b1-3)GlcNAc
Procedure, shortened: as §1

[12] = biological target: Fuc(a1-2)[GalNAc(a1-3)]Gal(b1-3)GlcNAc(b1-2)Man(a1-3)[Fuc(a1-2)[GalNAc(a1-3)]Gal(b1-3)GlcNAc(b1-2)Man(a1-6)]Man(b1-4)GlcNAc(b1-4)GlcNAc
Procedure, shortened: as §1

[13] = biological target: Fuc(a1-2)[GalNAc(a1-3)]Gal(b1-4)Glc
Procedure, shortened: as §1

[14] = biological target: Fuc(a1-2)[GalNAc(a1-3)]Gal(b1-4)GlcNAc
Procedure, shortened: as §1

[15] = biological target: Fuc(a1-2)[GalNAc(a1-3)]Gal(b1-4)GlcNAc(b1-2)Man(a1-3)[Fuc(a1-2)[GalNAc(a1-3)]Gal(b1-4)GlcNAc(b1-2)Man(a1-6)]Man(b1-4)GlcNAc(b1-4)GlcNAc
Procedure, shortened: as §1

[16] = biological target: Fuc(a1-2)[GalNAc(a1-3)]Gal(b1-4)GlcNAc(b1-3)Gal(b1-4)GlcNAc
Procedure, shortened: as §1

[17] = biological target: Fuc(a1-2)[GalNAc(a1-3)]Gal(b1-4)GlcNAc(b1-3)Gal(b1-4)GlcNAc(b1-3)Gal(b1-4)GlcNAc
Procedure, shortened: as §1

[18] = biological target: Fuc(a1-2)[GalNAc(a1-3)]Gal(b1-4)[Fuc(a1-3)]GlcNAc
Procedure, shortened: as §1

[19] = biological target: Fuc(a1-2)[GalNAc(a1-4)]Gal(b1-4)GlcNAc
Procedure, shortened: as §1

[20] = biological target: Fuc(a1-2)[GalNAc(b1-3)]Gal
Procedure, shortened: as §1

[21] = biological target: Fuc(a1-3)GlcNAc
Procedure, shortened: as §1

[22] = biological target: Fuc(a1-3)[Gal(b1-4)]Glc6S
Procedure, shortened: as §1

[23] = biological target: Fuc(a1-3)[Gal(b1-4)]GlcNAc
Procedure, shortened: as §1

[24] = biological target: Fuc(a1-3)[Gal(b1-4)]GlcNAc(b1-2)Man(a1-3)[Fuc(a1-3)[Gal(b1-4)]GlcNAc(b1-2)Man(a1-6)]Man(b1-4)GlcNAc(b1-4)GlcNAc
Procedure, shortened: as §1

[25] = biological target: Fuc(a1-3)[Gal(b1-4)]GlcNAc(b1-3)Gal(b1-3)[Fuc(a1-4)]GlcNAc
Procedure, shortened: as §1

[26] = biological target: Fuc(a1-3)[Gal(b1-4)]GlcNAc(b1-3)GalNAc
Procedure, shortened: as §1

[27] = biological target: Fuc(a1-3)[Gal(b1-4)]GlcNAc(b1-4)Gal(b1-4)[Fuc(a1-3)]GlcNAc
Procedure, shortened: as §1

[28] = biological target: Fuc(a1-3)[Gal(b1-4)]GlcNAc(b1-4)Gal(b1-4)[Fuc(a1-3)]GlcNAc(b1-4)Gal(b1-4)[Fuc(a1-3)]GlcNAc
Procedure, shortened: as §1

[29] = biological target: Fuc(a1-3)[Gal(b1-4)]GlcNAc(b1-6)[Gal(b1-3)GlcNAc(b1-3)]Gal(b1-4)Glc
Procedure, shortened: as §1

[30] = biological target: Fuc(a1-3)[Gal(b1-4)]GlcNAc6S
Procedure, shortened: as §1

[31] = biological target: Fuc(a1-3)[Gal3S(b1-4)]GlcNAc
Procedure, shortened: as §1

[32] = biological target: Fuc(a1-3)[Gal3S(b1-4)]GlcNAc6S
Procedure, shortened: as §1

[33] = biological target: Fuc(a1-3)[GalNAc(b1-4)]GlcNAc
Procedure, shortened: as §1

[34] = biological target: Fuc(a1-4)GlcNAc
Procedure, shortened: as §1

[35] = biological target: Fuc(b1-3)GlcNAc
Procedure, shortened: as §1

[36] = biological target: Gal(a1-2)Gal
Procedure, shortened: as §1

[37] = biological target: Gal(a1-3)Gal
Procedure, shortened: as §1

B1: AcfC (Vibrio cholerae), Q57410 (protein)
chain: MKSKNRFLLISLLSFSTSVFADVNLYGPGGPHVPLIKVAESFEKSQSKRVNITFGPQATWNDKAKKNADILFGASEHSALAIAEGHSERFSKFNIHPVFMREAIILVKKGNPKNIKGMADLLKPGIGIVVNDGAGVSNTSGTAVWEDSVGRMKNVEKLQAFRSNIHVFAPNSGSARKAFVDGEDIDAWITWVDWAIANPTIGDMVRMEDEYRIYRDFNVVLAKNPSSEAIDFFDYLTKSKDAEAIFQHYGWFK
glycan array binding signal (z-score) [1]: -0.643 | glycan array binding signal (z-score) [2]: -0.795 | glycan array binding signal (z-score) [3]: 1.07 | glycan array binding signal (z-score) [4]: -0.493 | glycan array binding signal (z-score) [5]: -0.471 | glycan array binding signal (z-score) [6]: 2 | glycan array binding signal (z-score) [7]: -1.06 | glycan array binding signal (z-score) [8]: 0.213 | glycan array binding signal (z-score) [9]: 0.712 | glycan array binding signal (z-score) [10]: -1.1 | glycan array binding signal (z-score) [11]: 0.69 | glycan array binding signal (z-score) [12]: 0.027 | glycan array binding signal (z-score) [13]: 0.3 | glycan array binding signal (z-score) [14]: -0.063 | glycan array binding signal (z-score) [15]: -0.26 | glycan array binding signal (z-score) [16]: 0.806 | glycan array binding signal (z-score) [17]: 0.499 | glycan array binding signal (z-score) [18]: 0.39 | glycan array binding signal (z-score) [19]: -0.154 | glycan array binding signal (z-score) [20]: -0.701 | glycan array binding signal (z-score) [21]: -1.06 | glycan array binding signal (z-score) [22]: -0.091 | glycan array binding signal (z-score) [23]: -0.258 | glycan array binding signal (z-score) [24]: -0.58 | glycan array binding signal (z-score) [25]: 0.643 | glycan array binding signal (z-score) [26]: 1.43 | glycan array binding signal (z-score) [27]: -0.549 | glycan array binding signal (z-score) [28]: -1.63 | glycan array binding signal (z-score) [29]: 0.646 | glycan array binding signal (z-score) [30]: 0.521 | glycan array binding signal (z-score) [31]: 0.629 | glycan array binding signal (z-score) [32]: -0.131 | glycan array binding signal (z-score) [33]: -0.775 | glycan array binding signal (z-score) [34]: -0.557 | glycan array binding signal (z-score) [35]: -0.5 | glycan array binding signal (z-score) [36]: 1.61 | glycan array binding signal (z-score) [37]: 0.458
